This note sets out measurements from patent publication US20040120923A1.

Sequences of proteins named here, by UniProt entry; tags and fusion partners are left off. A change or cut given only in a name is not applied to a line headed by its entry.
UniProt Q9NZH6: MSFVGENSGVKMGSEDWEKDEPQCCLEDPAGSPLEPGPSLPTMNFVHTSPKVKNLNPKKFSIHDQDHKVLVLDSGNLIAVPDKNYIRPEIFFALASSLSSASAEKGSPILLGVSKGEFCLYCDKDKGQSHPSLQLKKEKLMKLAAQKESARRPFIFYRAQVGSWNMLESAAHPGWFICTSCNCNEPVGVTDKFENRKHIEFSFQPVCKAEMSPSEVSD

These are yes or no findings as the source states them, for the method shown. Binding calls can cover weak binding; strength is not graded here. Where a sequence is shown, tags or fusion partners need not be part of it.

Assay [1] has as its target T1, IL-18Rα: D3 (third extracellular domain of IL-18Rα, his6 tagged, from E. coli) (UniProt Q13478).
T1 sequence (looked up): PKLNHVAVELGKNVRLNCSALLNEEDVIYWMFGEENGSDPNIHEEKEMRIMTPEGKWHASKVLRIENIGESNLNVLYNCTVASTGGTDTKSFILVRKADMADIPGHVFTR
Briefly: BS3 chemical cross-linking, SDS-PAGE, Western blot with anti-IL-18Rα mAb. (In general: Immunoblotting shows a protein as a band on a membrane.)

Assay [2] concerns the target T1, IL-18Rα: D3 (third extracellular domain of IL-18Rα, his6 tagged, from E. coli). Briefly: BS3 chemical cross-linking, reducing SDS-PAGE, Western blot with anti-IL-18Rα mAb (legend of FIG. 3A).

Take “mature IL-1F7b (N-terminus E21) (from UniProt Q9NZH6) (ligand)”: the binding entry in assay [1] and in assay [2] was “binds” throughout.
